# Experimental data reported in paper PMC4627807, “Klotho Regulates 14-3-3ζ Monomerization and Binding to the ASK1 Signaling Complex in Response to Oxidative Stress” (PLoS ONE, 2015).
# Chains of the proteins cited; added tags and fusions are not shown.
# UniProt Q99683: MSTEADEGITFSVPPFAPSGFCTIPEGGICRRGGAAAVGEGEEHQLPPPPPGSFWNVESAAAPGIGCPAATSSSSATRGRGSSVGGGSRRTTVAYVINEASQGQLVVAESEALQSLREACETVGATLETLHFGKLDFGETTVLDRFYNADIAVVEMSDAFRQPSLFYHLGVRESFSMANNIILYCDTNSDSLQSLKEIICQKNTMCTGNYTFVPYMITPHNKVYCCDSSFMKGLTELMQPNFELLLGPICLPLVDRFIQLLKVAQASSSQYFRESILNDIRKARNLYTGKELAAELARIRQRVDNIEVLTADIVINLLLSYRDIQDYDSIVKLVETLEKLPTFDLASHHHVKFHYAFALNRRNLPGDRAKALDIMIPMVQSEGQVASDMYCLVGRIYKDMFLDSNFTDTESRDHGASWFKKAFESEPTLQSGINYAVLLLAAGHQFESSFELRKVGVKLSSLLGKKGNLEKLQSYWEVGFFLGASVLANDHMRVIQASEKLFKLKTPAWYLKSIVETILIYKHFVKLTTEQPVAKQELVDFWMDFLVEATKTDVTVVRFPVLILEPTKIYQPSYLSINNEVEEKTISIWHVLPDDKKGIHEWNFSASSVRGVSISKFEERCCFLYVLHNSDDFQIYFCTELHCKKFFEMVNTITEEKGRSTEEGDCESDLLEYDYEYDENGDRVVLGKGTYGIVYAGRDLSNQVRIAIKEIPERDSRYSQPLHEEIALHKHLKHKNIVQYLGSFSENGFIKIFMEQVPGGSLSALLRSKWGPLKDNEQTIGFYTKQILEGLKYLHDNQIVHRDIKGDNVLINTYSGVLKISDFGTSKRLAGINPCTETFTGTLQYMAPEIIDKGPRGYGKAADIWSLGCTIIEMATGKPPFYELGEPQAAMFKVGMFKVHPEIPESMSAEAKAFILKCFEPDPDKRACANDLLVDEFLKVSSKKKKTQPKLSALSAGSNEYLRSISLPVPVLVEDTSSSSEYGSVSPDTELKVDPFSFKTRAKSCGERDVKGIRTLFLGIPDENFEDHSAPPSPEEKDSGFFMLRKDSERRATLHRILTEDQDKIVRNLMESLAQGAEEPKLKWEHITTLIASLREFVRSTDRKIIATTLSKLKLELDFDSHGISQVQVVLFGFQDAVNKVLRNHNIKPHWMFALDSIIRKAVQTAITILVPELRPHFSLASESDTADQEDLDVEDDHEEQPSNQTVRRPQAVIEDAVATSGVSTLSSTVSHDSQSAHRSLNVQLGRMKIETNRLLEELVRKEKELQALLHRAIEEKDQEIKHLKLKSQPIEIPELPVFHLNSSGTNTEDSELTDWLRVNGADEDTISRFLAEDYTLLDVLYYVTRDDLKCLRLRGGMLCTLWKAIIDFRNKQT
# UniProt P63104: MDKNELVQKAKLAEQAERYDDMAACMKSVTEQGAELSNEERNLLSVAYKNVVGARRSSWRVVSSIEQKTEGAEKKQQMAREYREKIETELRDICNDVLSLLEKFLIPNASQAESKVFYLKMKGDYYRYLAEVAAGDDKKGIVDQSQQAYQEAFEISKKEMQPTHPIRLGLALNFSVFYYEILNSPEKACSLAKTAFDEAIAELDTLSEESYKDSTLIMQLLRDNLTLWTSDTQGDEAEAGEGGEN
# No constants are given. Whether binding was seen depends on the method and setting. In cells and extracts the contact can be indirect. Some results given as binding are weak or reduced against the parent protein; the word gives no strength.
# Assays:
# [1] = biological target: apoptosis signal-regulating kinase 1 (ASK1) (human (endogenous in HEK 293)) (UniProt Q99683); experiment: co-IP + other: immuno-capillary electrophoresis (iCE); as a4, but cells treated with 5 μM ROT alone
# [2] = biological target: apoptosis signal-regulating kinase 1 (ASK1) (human (endogenous in HEK 293)) (UniProt Q99683); experiment: co-IP + other: immuno-capillary electrophoresis (iCE); complex co-precipitated with ASK1 antibody from HEK 293 lysate, eluted and separated by native pI (NanoPro CB1000), probed with antibodies to Trx, ASK1 and 14-3-3ζ; buffer-treated cells and cells pretreated with 200 pM Klotho before ROT
# [3] = biological target: 14-3-3ζ (human (endogenous in HEK 293)) (UniProt P63104); experiment: co-IP + other: immuno-capillary electrophoresis (iCE); as a4, but cells treated with 5 μM ROT alone
# [4] = biological target: GST-tagged 14-3-3ζ wild type (Wt) (UniProt P63104); experiment: pull-down; lysates of HEK 293 cells transfected with GST-14-3-3ζ Wt or Dm adsorbed onto glutathione sepharose, binding buffer 20 mM Tris-Cl pH 7.5, 2 mM EDTA, 1 mM EGTA, 80 mM NaCl; endogenous Trx by Western blot; cells treated with buffer or secreted Klotho for 40 min
Molecule,binding [1],binding [2],binding [3],binding [4]
14-3-3ζ (from UniProt P63104 1-245),no binding (condition: cells treated with 5 μM ROT),binds,–,–
"thioredoxin (Trx) (natural protein, human (endogenous in HEK 293), UniProt P10599 1-105, looked up, thioredoxin (Trx), endogenous in HEK 293 cells; active site cysteines named as Cys32/35; Detected by Western blot or iCE with a Trx antibody; source: endogenous, HEK 293 lysate) MVKQIESKTAFQEALDAAGDKLVVVDFSATWCGPCKMIKPFFHSLSEKYSNVIFLEVDVDDCQDVASECEVKCMPTFQFFKKGQKVGEFSGANKEKLEATINELV",–,–,binds,binds
